# Results published in ChEMBL document CHEMBL1287694, “The synthesis and SAR of novel diarylsulfone 11β-HSD1 inhibitors” (Bioorg Med Chem Lett, 2010).
# Columns and labels:
# in vivo [1] = details: rat, iv, 0.5 mg/kg
# in vivo [2] = details: rat, iv, 0.5 mg/kg; remark: listed apart in the source
# in vivo [3] = details: dog, iv, 0.5 mg/kg
# in vivo [4] = details: dog, iv, 0.5 mg/kg; remark: listed apart in the source
# in vivo [5] = details: cynomolgus monkey, iv, 0.5 mg/kg
# in vivo [6] = details: cynomolgus monkey, iv, 0.5 mg/kg; remark: listed apart in the source
Structure (SMILES),Vd (in vivo [1]),MRT (in vivo [2]),Vd (in vivo [3]),MRT (in vivo [4]),Vd (in vivo [5]),MRT (in vivo [6])
C[C@](O)(c1ccc(S(=O)(=O)c2ccc(-c3ccc(C#N)cc3)cc2Cl)cc1)C(F)(F)F,3 L/kg,7.2 h,1.7 L/kg,100 h,1.4 L/kg,6.5 h
C[C@@H]1CN(CC2(C(N)=O)CC2)CCN1S(=O)(=O)c1ccc([C@](C)(O)C(F)(F)F)cc1,,0.8 h,,,,
